No constants are given. Whether binding was seen depends on the method and setting. For part of these data: In cells and extracts the contact can be indirect. Some results given as binding are weak or reduced against the parent protein; the word gives no strength.

Amino acid sequences for entries named in this document (tags omitted).
UniProt P60484: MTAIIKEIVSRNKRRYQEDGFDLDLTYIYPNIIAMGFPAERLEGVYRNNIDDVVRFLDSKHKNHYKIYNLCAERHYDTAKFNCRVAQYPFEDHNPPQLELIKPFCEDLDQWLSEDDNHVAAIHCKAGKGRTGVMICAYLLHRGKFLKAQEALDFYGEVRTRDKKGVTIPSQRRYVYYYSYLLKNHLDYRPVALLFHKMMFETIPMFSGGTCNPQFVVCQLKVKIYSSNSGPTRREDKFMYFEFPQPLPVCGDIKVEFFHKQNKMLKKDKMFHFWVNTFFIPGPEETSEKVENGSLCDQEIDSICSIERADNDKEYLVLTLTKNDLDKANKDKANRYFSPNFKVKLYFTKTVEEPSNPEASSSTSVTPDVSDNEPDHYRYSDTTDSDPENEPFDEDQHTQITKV
UniProt P52732: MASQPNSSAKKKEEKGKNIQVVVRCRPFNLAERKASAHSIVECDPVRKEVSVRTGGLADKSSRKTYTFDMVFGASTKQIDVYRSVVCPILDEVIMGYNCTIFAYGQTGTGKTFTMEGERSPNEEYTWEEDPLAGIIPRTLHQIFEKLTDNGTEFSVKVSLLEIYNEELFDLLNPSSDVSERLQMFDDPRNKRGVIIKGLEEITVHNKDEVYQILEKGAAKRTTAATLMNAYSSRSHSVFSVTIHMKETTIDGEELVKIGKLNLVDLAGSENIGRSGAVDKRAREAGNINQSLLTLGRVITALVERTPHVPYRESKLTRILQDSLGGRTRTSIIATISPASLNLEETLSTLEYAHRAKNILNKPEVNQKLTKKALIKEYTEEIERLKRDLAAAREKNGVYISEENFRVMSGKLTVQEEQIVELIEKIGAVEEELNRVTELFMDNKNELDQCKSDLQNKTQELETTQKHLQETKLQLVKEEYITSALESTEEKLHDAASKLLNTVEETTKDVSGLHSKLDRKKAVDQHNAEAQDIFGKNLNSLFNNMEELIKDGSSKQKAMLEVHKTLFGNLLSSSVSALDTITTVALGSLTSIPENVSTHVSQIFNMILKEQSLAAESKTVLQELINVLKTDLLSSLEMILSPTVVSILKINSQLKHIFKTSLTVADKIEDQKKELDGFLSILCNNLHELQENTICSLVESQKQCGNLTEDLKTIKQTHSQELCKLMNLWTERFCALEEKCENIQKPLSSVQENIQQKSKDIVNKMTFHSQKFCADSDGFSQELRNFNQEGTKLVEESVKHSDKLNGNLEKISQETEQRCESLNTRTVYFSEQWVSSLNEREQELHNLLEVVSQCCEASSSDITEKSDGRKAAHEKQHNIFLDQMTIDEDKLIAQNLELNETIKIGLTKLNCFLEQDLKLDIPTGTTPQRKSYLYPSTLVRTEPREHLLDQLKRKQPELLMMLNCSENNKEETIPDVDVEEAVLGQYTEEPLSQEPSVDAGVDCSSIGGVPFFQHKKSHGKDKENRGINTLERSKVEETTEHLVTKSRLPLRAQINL

These results are taken from PMC4980451.

In test [1] the target is His-PTEN (UniProt P60484). Put plainly: co-IP; purified FLAG-EG5 (1 ug) incubated with His-PTEN (1 ug) for 30 min at room temperature; immunoprecipitated with a PTEN monoclonal antibody; FLAG-EG5 detected with anti-FLAG antibody; both purified.
Test [2] deals with PTEN (endogenous, HeLa) (human (endogenous in HeLa)) (UniProt P60484). Put plainly: co-IP; endogenous proteins; cell lysates (HeLa; Pten+/+ MEFs; synchronized samples 6-10 h after release from double thymidine block) immunoprecipitated with an anti-PTEN monoclonal antibody, EG5 detected by Western blotting. For orientation: In western blotting, separated proteins are transferred to a membrane and probed.

For test [3] the target is unchanged. Put plainly: condition: only at times other than 6-10 h after release from double thymidine block; co-IP; endogenous proteins; synchronized samples at times other than 6-10 h after release from double thymidine block.

Consider “FLAG-EG5 (Sf9) (from UniProt P52732 1-1056)”, for which the binding result in test [1] is reported as “binds”. As for “EG5 (endogenous, HeLa) (from UniProt P52732 1-1056)”, the results for the binding entry in test [2] and in test [3] were “binds” and “no binding”, respectively.
